Assay results: publication PMC5428262
Results are given in words; binding and its absence hold for the method and conditions named. Binding seen in cells or lysates may run through a third protein. Binding can be weak; no strength is given. Tags and fused reporters may be left off the sequences shown.

Experiments:
[1] = molecular target: GFP-tagged tomosyn1 (GFP-Tomosyn1), wild type (rat); test: co-IP; GFP antiserum and protein G agarose, overnight, 300 ug extract of INS 832/13 cells expressing GFP-tomosyn1 constructs; lysis buffer with 1% Triton X-100, 150 mM NaCl, 25 mM N-ethylmaleimide; blot; cells in regular media or treated with 10 mM glucose or 30 mM KCl (15 min) in KRB
[2] = molecular target: native tomosyn (human islets) (human (endogenous in human islets)); test: co-IP; anti-tomosyn antibody (0.25 ug) and protein G agarose, overnight, 300 ug whole cell extract of INS 832/13 cells or human islets; lysis buffer with 1% Triton X-100, 150 mM NaCl, 25 mM N-ethylmaleimide; blot

Binder | binding [1] | binding [2]
secretagogin (INS 832/13 cells) (protein, UniProt Q6R556 1-276) MDNAHRQTQAHLDAACFWQIWQRFDKDEKGYIKETELDAFFDDLLAKFGIEDTLMEENVQKMKEQLMVGHDISKEGRILMKELASMFLSEDENFLLFFRLETPLDNSVEFMQIWRKYDADSSGFISAAELSNFLRDLFLHHKKVISEAELEEYTSTMEKIFDRNKDGRLDLNDLARILALQENFLLQFKMDASSTEERKRDFEKIFAHYDVSKTGALEGPEVDGFVKDMMELVQPSISGVDLDKFREILLRHCDVNKDGKIQKSELALCLGLKINP | binds | 
native secretagogin (human islets) (protein, UniProt O76038 1-276) MDSSREPTLGRLDAAGFWQVWQRFDADEKGYIEEKELDAFFLHMLMKLGTDDTVMKANLHKVKQQFMTTQDASKDGRIRMKELAGMFLSEDENFLLLFRRENPLDSSVEFMQIWRKYDADSSGFISAAELRNFLRDLFLHHKKAISEAKLEEYTGTMMKIFDRNKDGRLDLNDLARILALQENFLLQFKMDACSTEERKRDFEKIFAYYDVSKTGALEGPEVDGFVKDMMELVQPSISGVDLDKFREILLRHCDVNKDGKIQKSELALCLGLKINP |  | binds
